# Results from one PubChem assay

The results are deposited in PubChem (AID1159506; NCATS, 2015).

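Genome-wide siRNA knockdown in TC32 Ewing sarcoma cells, comparing luciferase light from an NR0B1-promoter reporter with a CMV-promoter reporter 48 hours after transfection.
Each siRNA was applied at 20 nM.
A z-score of the log NR0B1-over-CMV signal, less the median of siRNAs with the same seed; more negative means a stronger specific loss of the NR0B1 reporter.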

This is part of the screen; most of the strongest results are not listed here.
Sequences are the guide (antisense) strand, without overhang.

Result for UUAGUUGCAGACUUUAACC against USP1 was seed-corrected z-score -1.114.
Result for AUUCAUAUCUCGGACCUGC against MOB1A was seed-corrected z-score -0.5498.
Result for AAAGGAGAACAUACACUGG against TRMT12 was seed-corrected z-score -0.4845.
Result for UUAGGUAAAGUACUUUAUU against GSTA1 was seed-corrected z-score 0.67.
Result for UCCAAUUCCAAGGCUAGUG against TREH was seed-corrected z-score -1.818.
Result for UUUACUUCAUUCGUAUGUC against TBL1XR1 was seed-corrected z-score 0.8603.
Result for AUCAUCUUCGAAUCUAUGC against NFAM1 was seed-corrected z-score 0.05311.
Result for ACCUUGUCAAGCUUGUCCC against TRIM62 was seed-corrected z-score -0.1188.
Result for UAUGUCCUGUGGUUGAAGC against MSANTD4 was seed-corrected z-score 0.2553.
Result for UUGUUGUUACUCUAUAUGC against SNX2 was seed-corrected z-score 1.253.
Result for UCUUUCACUGUGAAGUCUC against LYPD6 was seed-corrected z-score 1.118.
Result for UGCGUGUAGAUGUUACUGG against TECPR1 was seed-corrected z-score -0.1732.
Result for AAAGCGGAGACAUUGGUGG against HAUS6 was seed-corrected z-score 0.5611.
Result for AAAGGUGGUAGUCUGUAGG against LDOC1 was seed-corrected z-score -1.36.
Result for AGAAUUGUUAGACAGAAUC against LCA10 was seed-corrected z-score 0.5954.
Result for UAUUGCGAAAGAAAUGUCC against CENPL was seed-corrected z-score 0.7131.
Result for UUAAUAGAUGGACCAUUGC against OR5AC2 was seed-corrected z-score 0.3491.
Result for UUGCGGAUGUUAGAUGUGG against ZNF76 was seed-corrected z-score -0.656.
Result for UGCUAGAUAAGAGCUACGG against KCNJ2 was seed-corrected z-score -0.2176.
Result for UAGUUAACAGGGUCUCCGC against RPS3 was seed-corrected z-score 2.186.
Result for UACAUCACCGCUACUCACG against AAK1 was seed-corrected z-score -0.0835.
Result for AAAUGAUUCGAGUUCCUCC against EIF4EBP2 was seed-corrected z-score 1.181.
Result for UAAAGAUCAAUCAAGUUUC against MITF was seed-corrected z-score -0.2761.
Result for UAACACCACAAUGUCAGUG against HDDC3 was seed-corrected z-score 0.07125.
Result for AGAGAGACCACUGUGAGGU against OR2W5 was seed-corrected z-score -0.1102.
Result for UUUGGUUCGACAAAUCUCA against CDK9 was seed-corrected z-score 0.04546.
Result for AUGAGGACCAAGUAAAGGC against ZNF595 was seed-corrected z-score 0.3668.
Result for UCUCUAAAAUCAUUUGAUC against FAM76A was seed-corrected z-score -0.4863.
Result for UAAGAUCAAGUUUAGUUCC against RAC1 was seed-corrected z-score -0.2766.
Result for UACACGCUAGGAACCUUGC against VCAM1 was seed-corrected z-score -0.33.
Result for UUAGUUACCAAUUUUACAU against ADH1B was seed-corrected z-score 0.2275.
Result for UUAGAGAUAGGGUUUACGC against KIAA0101 was seed-corrected z-score 0.1119.
Result for UUAUUAACAUGAUCGUUGG against FH was seed-corrected z-score 0.3338.

The first 3 entries again:

{"sirna": "UUAGUUGCAGACUUUAACC", "target gene": "USP1", "seed-corrected z-score": "-1.114"}
{"sirna": "AUUCAUAUCUCGGACCUGC", "target gene": "MOB1A", "seed-corrected z-score": "-0.5498"}
{"sirna": "AAAGGAGAACAUACACUGG", "target gene": "TRMT12", "seed-corrected z-score": "-0.4845"}